The subject of the test is L1210 leukemia ip in BDF1 mice, survival T/C. Nature of the test: NCI In Vivo Anticancer Drug Screen. Data for tumor model L1210 Leukemia (intraperitoneal) in B6D2F1 (BDF1) mice. The following applies: T/C endpoint: mean survival time, higher T/C = longer survival.
The mark [1] stands for this setting: dose: 100.0 mg/kg/injection, schedule: Q01DX001 (ip), vehicle: saline.
Setting [2] is: dose: 400.0 mg/kg/injection, schedule: Q01DX001 (ip), vehicle: saline.

The list is a part of this screen's results and no random one: it is rich in T/C values a quarter to a half above the control, in often repeated tests (any T/C) and in doses without a T/C. Further doses and runs are listed elsewhere. T/C gives the treated animals as a percentage of the vehicle group. Some entries give survivors of the animals treated and no T/C: the source files T/C as zero there, which appears to mark a toxic dose or a test without result, not a measured value. Some survivor counts are full or nearly so, which does not show that the dose was tolerated: the source hardly ever lists a survival T/C far under the control, and the zero likely stands for such cases as well. Counts of survivors are from the toxicity check (mostly the fifth day) where no day follows; animals may have died later. Schedules are NCI's codes, taken here to give the interval after Q, in days (D) or hours (H), and the number of doses after X. Some schedule codes hold Z or #, which are not explained here. For survival time, this PubChem deposit counts one and a half times the control or more as active, and values a quarter to a half above the control carry no call in these data; other NCI protocols may use other cut-offs.

As to `Cc1ccc(S(=O)(=O)OCC2OC(C)(C)OC3C(COS(=O)(=O)c4ccc(C)cc4)OC(C)(C)OC23)cc1` (configuration not stated), the survivor count (dose: 50.0 mg/kg/injection, schedule: Q01DX001 (ip), vehicle: saline) is 4 of 4; the survivor count under setting [1] is recorded as 4 of 4; the survivor count (dose: 200.0 mg/kg/injection, schedule: Q01DX001 (ip), vehicle: saline) is 4 of 4; the survivor count under setting [2] is reported as 4 of 4.
Regarding `CCN(/C=C1\CCOC1=O)CC`, the survivor count (dose: 400.0 mg/kg/injection, schedule: Q04DX002 (ip), vehicle: saline) was 0 of 3.
In the case of `C[n+]1c(/C=C/c2ccc(O)c3ccccc23)ccc2ccccc21`, the survivor count (dose: 300.0 mg/kg/injection, schedule: Q01DX001 (ip), vehicle: carboxymethylcellulose (CMC)) is 1 of 6.
Turning to `CN1CCCN(CCOC(c2ccccc2)c2ccccc2)CC1`, the survivor count (dose: 125.0 mg/kg/injection, schedule: Q01DX Z (ip), vehicle: methylcellulose (MC)) was 0 of 6.
Consider `CN(N=O)C(=O)Nc1c[nH]c(=O)[nH]c1=O`, for which the T/C runs as follows: (dose: 5.0 mg/kg/injection, schedule: Q01DX Z (ip), vehicle: carboxymethylcellulose (CMC)) 131 % of control; (dose: 5.3 mg/kg/injection, schedule: Q01DX Z (ip), vehicle: saline) 134 % of control; (dose: 8.0 mg/kg/injection, schedule: Q01DX Z (ip), vehicle: saline) 132 % of control; (dose: 10.0 mg/kg/injection, schedule: Q01DX Z (ip), vehicle: carboxymethylcellulose (CMC)) 142 % of control; (dose: 12.0 mg/kg/injection, schedule: Q01DX Z (ip), vehicle: saline) 136 % of control; (dose: 18.0 mg/kg/injection, schedule: Q01DX Z (ip), vehicle: saline) 138 % of control. The T/C (dose: 60.0 mg/kg/injection, schedule: Q01DX001 (ip), vehicle: saline) was 132 % of control and the T/C (dose: 120.0 mg/kg/injection, schedule: Q01DX001 (ip), vehicle: saline) is 141 % of control. In addition, the survivor count by setting is: (dose: 100.0 mg/kg/injection, schedule: Q01DX Z (ip), vehicle: carboxymethylcellulose (CMC)) 6 of 6; (dose: 120.0 mg/kg/injection, schedule: Q01DX Z (ip), vehicle: carboxymethylcellulose (CMC)) 4 of 6.
On to `C[S+](C)CCCCCC[S+](C)C`, for which the survivor count by setting is: (dose: 200.0 mg/kg/injection, schedule: Q04DX003 (ip), vehicle: saline) 2 of 6; (dose: 400.0 mg/kg/injection, schedule: Q04DX003 (ip), vehicle: saline) 0 of 6.
Take `CSc1ncnc2c1ncn2-n1cccc1`: the survivor count (dose: 400.0 mg/kg/injection, schedule: Q04DX003 (ip), vehicle: saline with Tween-80) is 2 of 6.
In the case of `Cc1cc(C)c2c(C#N)cn(-c3cccc([N+](=O)[O-])c3)c2n1`, the survivor count is, setting by setting: under setting [1], 3 of 3; under setting [2], 0 of 3.

(Values after PubChem BioAssay AID248 (DTP/NCI, 2004).)
